Results published in paper PMC4269414, “Stubborn Contaminants: Influence of Detergents on the Purity of the Multidrug ABC Transporter BmrA” (PLoS ONE, 2014).
Results are given in words; binding and its absence hold for the method and conditions named. In cells and extracts the contact can be indirect. These calls come from enrichment with a bait or labelling near it, and not all partners need be listed. No binding means not detected with the bait. Tags and fused reporters may be left off the sequences shown.

The chains behind the UniProt entries cited, without tags or fusion partners. Residues count along the entry.
UniProt P02931, residues 23-362: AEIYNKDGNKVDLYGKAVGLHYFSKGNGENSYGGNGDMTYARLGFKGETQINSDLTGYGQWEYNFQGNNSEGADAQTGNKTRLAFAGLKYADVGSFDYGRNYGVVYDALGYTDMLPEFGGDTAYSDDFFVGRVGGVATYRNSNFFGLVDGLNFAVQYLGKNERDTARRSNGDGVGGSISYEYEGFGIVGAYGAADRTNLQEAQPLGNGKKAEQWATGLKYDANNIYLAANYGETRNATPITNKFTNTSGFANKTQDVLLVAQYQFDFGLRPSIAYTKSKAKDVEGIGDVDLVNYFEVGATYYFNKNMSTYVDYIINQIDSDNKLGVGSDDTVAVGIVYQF

Tests used:
[1] = molecular target: T1, BmrA (Bacillus multidrug resistance ATP), 6-histidine N-terminal tag (Bacillus subtilis) (UniProt O06967); experiment: affinity purification with mass spectrometry; His6-BmrA solubilised from E. coli membranes with 1% FC12, Q-Sepharose and Ni2+ chelating column; overloaded SDS-PAGE bands identified by mass spectrometry
T1 sequence: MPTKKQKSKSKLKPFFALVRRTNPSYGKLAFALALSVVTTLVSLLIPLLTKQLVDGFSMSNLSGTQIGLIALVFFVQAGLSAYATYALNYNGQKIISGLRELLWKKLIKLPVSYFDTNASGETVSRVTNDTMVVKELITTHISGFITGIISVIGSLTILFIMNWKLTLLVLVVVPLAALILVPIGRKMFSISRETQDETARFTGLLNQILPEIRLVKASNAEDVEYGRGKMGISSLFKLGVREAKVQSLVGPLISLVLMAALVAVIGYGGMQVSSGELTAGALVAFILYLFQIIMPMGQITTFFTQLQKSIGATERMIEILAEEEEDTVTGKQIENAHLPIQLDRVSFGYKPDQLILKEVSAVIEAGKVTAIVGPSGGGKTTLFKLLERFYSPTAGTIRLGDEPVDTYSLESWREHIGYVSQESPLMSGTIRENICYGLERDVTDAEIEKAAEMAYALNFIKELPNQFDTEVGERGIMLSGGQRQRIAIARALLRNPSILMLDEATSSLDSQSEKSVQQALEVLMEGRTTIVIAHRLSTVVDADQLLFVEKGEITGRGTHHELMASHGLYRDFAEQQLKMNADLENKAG

[2] = molecular target: T1, BmrA (Bacillus multidrug resistance ATP), 6-histidine N-terminal tag (Bacillus subtilis); experiment: as above; remark: listed apart in the source
[3] = molecular target: T1, BmrA (Bacillus multidrug resistance ATP), 6-histidine N-terminal tag (Bacillus subtilis); experiment: affinity purification with mass spectrometry; His6-BmrA solubilised from E. coli membranes with 1% LDAO, Ni2+-NTA resin and SEC, 4°C; overloaded SDS-PAGE bands identified by mass spectrometry
[4] = molecular target: T1, BmrA (Bacillus multidrug resistance ATP), 6-histidine N-terminal tag (Bacillus subtilis); experiment: affinity purification with mass spectrometry

Outer membrane protein F (OmpF) (from UniProt P02931 23-362)
binding [1]: no binding

B1: Ferrienterobactin receptor (fepA) (protein, UniProt P05825 23-746)
chain: QEPTDTPVSHDDTIVVTAAEQNLQAPGVSTITADEIRKNPVARDVSKIIRTMPGVNLTGNSTSGQRGNNRQIDIRGMGPENTLILIDGKPVSSRNSVRQGWRGERDTRGDTSWVPPEMIERIEVLRGPAAARYGNGAAGGVVNIITKKGSGEWHGSWDAYFNAPEHKEEGATKRTNFSLTGPLGDEFSFRLYGNLDKTQADAWDINQGHQSARAGTYATTLPAGREGVINKDINGVVRWDFAPLQSLELEAGYSRQGNLYAGDTQNTNSDSYTRSKYGDETNRLYRQNYALTWNGGWDNGVTTSNWVQYEHTRNSRIPEGLAGGTEGKFNEKATQDFVDIDLDDVMLHSEVNLPIDFLVNQTLTLGTEWNQQRMKDLSSNTQALTGTNTGGAIDGVSTTDRSPYSKAEIFSLFAENNMELTDSTIVTPGLRFDHHSIVGNNWSPALNISQGLGDDFTLKMGIARAYKAPSLYQTNPNYILYSKGQGCYASAGGCYLQGNDDLKAETSINKEIGLEFKRDGWLAGVTWFRNDYRNKIEAGYVAVGQNAVGTDLYQWDNVPKAVVEGLEGSLNVPVSETVMWTNNITYMLKSENKTTGDRLSIIPEYTLNSTLSWQAREDLSMQTTFTWYGKQQPKKYNYKGQPAVGPETKEISPYSIVGLSATWDVTKNVSLTGGVDNLFDKRLWRAGNAQTTGDLAGANYIAGAGAYTYNEPGRTWYMSVNTHF
binding [2]: no binding

B2: Cytochrome ubiquinol oxidase sub. 2 (protein, UniProt P0ABJ2 25-315)
chain: CNSALLDPKGQIGLEQRSLILTAFGLMLIVVIPAILMAVGFAWKYRASNKDAKYSPNWSHSNKVEAVVWTVPILIIIFLAVLTWKTTHALEPSKPLAHDEKPITIEVVSMDWKWFFIYPEQGIATVNEIAFPANTPVYFKVTSNSVMNSFFIPRLGSQIYAMAGMQTRLHLIANEPGTYDGISASYSGPGFSGMKFKAIATPDRAAFDQWVAKAKQSPNTMSDMAAFEKLAAPSEYNQVEYFSNVKPDLFADVINKFMAHGKSMDMTQPEGEHSAHEGMEGMDMSHAESAH
binding [3]: no binding

B3: Cytochrome ubiquinol oxidase sub. 1 (protein, UniProt P0ABJ0 1-663)
chain: MFGKLSLDAVPFHEPIVMVTIAGIILGGLALVGLITYFGKWTYLWKEWLTSVDHKRLGIMYIIVAIVMLLRGFADAIMMRSQQALASAGEAGFLPPHHYDQIFTAHGVIMIFFVAMPFVIGLMNLVVPLQIGARDVAFPFLNNLSFWFTVVGVILVNVSLGVGEFAQTGWLAYPPLSGIEYSPGVGVDYWIWSLQLSGIGTTLTGINFFVTILKMRAPGMTMFKMPVFTWASLCANVLIIASFPILTVTVALLTLDRYLGTHFFTNDMGGNMMMYINLIWAWGHPEVYILILPVFGVFSEIAATFSRKRLFGYTSLVWATVCITVLSFIVWLHHFFTMGAGANVNAFFGITTMIIAIPTGVKIFNWLFTMYQGRIVFHSAMLWTIGFIVTFSVGGMTGVLLAVPGADFVLHNSLFLIAHFHNVIIGGVVFGCFAGMTYWWPKAFGFKLNETWGKRAFWFWIIGFFVAFMPLYALGFMGMTRRLSQQIDPQFHTMLMIAASGAVLIALGILCLVIQMYVSIRDRDQNRDLTGDPWGGRTLEWATSSPPPFYNFAVVPHVHERDAFWEMKEKGEAYKKPDHYEEIHMPKNSGAGIVIAAFSTIFGFAMIWHIWWLAIVGFAGMIITWIVKSFDEDVDYYVPVAEIEKLENQHFDEITKAGLKNGN
binding [4]: no binding
